Source: paper PMC8834437, “Physical Interaction between Embryonic Stem Cell-Expressed Ras (ERas) and Arginase-1 in Quiescent Hepatic Stellate Cells” (Cells, 2022)
Results are given in words; binding and its absence hold for the method and conditions named. Binding seen in cells or lysates may run through a third protein. Some binding calls cover weakened binding; strength is not graded here. For some of these results: Sequences can lack the tags named with a protein. Blank lines part the entries; values can stand above or below the binder they belong to.

How the values were obtained:
[1] = target: T1, ERas, endogenous in freshly isolated rat hepatic stellate cells (d0) (rat (endogenous in HSCs)) (UniProt D3ZTE4); experiment: co-IP; ERas antibody or IgG control, Protein G beads, total cell lysates of freshly isolated HSCs (d0), 4 °C
T1 sequence: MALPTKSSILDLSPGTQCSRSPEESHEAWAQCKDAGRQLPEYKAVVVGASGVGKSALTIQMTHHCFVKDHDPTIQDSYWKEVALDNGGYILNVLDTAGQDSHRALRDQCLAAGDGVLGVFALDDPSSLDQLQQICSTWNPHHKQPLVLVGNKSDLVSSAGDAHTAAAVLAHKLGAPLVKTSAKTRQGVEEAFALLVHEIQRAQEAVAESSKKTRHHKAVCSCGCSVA

[2] = target: T2, GST-rnNex (rat ERas N-terminal extension, aa 1-38) (rat) (UniProt D3ZTE4); experiment: pull-down; purified GST-rnNex on GSH beads, freshly isolated HSC (d0) lysates, immunoblot with anti-ARG1 antibody; only the target purified
T2 sequence: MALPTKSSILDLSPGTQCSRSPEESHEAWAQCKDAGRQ

[3] = target: T3, hsERas ΔC overexpressed in HEK293 cells (EYFP fusion) (human) (UniProt Q7Z444); experiment: co-IP; ERas constructs overexpressed in HEK293 cells, GFP-coupled nanobeads, 1 h at 4 °C, immunoblot with monoclonal antibody against ARG1
T3 sequence: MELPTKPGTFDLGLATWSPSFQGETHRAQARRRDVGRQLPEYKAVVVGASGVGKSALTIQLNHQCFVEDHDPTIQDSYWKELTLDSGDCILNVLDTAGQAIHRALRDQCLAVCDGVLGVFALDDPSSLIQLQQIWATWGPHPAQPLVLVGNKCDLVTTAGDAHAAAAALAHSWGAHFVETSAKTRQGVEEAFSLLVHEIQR

[4] = target: T4, hsERas FL overexpressed in HEK293 cells (EYFP fusion) (human) (UniProt Q7Z444); experiment: as above
T4 sequence: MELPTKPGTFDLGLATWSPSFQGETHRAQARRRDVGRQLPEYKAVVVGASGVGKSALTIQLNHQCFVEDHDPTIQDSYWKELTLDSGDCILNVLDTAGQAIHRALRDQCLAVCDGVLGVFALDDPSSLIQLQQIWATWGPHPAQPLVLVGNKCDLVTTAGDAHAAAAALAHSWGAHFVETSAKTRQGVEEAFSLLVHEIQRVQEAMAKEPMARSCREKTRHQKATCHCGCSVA

[5] = target: T5, rnERas ΔC overexpressed in HEK293 cells (EYFP fusion) (rat) (UniProt D3ZTE4); experiment: as above
T5 sequence: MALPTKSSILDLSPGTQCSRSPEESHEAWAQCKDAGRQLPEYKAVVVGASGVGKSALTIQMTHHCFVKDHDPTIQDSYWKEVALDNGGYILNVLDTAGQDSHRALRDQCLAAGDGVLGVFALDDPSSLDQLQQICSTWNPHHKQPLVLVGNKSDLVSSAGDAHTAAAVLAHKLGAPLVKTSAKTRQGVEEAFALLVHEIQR

[6] = target: T6, rnERas FL overexpressed in HEK293 cells (EYFP fusion) (rat) (UniProt D3ZTE4); experiment: as above
T6 sequence: T1 sequence

[7] = target: T7, hsERas Nex overexpressed in HEK293 cells (EYFP fusion) (human) (UniProt Q7Z444); experiment: as above
T7 sequence: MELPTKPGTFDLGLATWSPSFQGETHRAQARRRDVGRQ

[8] = target: T8, rnERas Nex overexpressed in HEK293 cells (EYFP fusion) (rat) (UniProt D3ZTE4); experiment: as above
T8 sequence: T2 sequence

[9] = target: T4, hsERas FL overexpressed in HEK293 cells (EYFP fusion) (human); experiment: pull-down; purified ARG1 with overexpressed ERas ΔN, ERas WT or EYFP (Supplementary Figure S4A); only the binder purified
[10] = target: T9, N-terminally truncated ERas (ΔN; aa 39-233), overexpressed (human) (UniProt Q7Z444); experiment: as above
T9 sequence: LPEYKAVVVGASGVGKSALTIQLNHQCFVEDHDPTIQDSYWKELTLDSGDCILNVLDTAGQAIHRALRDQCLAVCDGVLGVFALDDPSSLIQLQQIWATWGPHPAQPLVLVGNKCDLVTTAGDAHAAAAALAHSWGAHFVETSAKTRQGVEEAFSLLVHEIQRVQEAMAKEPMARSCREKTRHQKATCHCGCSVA

binding [1]: binds
binding [2]: binds
B1: ARG1, endogenous in freshly isolated rat hepatic stellate cells (d0) (enzyme, UniProt P07824 1-323)
chain: MSSKPKPIEIIGAPFSKGQPRGGVEKGPAALRKAGLVEKLKETEYNVRDHGDLAFVDVPNDSPFQIVKNPRSVGKANEQLAAVVAETQKNGTISVVLGGDHSMAIGSISGHARVHPDLCVIWVDAHTDINTPLTTSSGNLHGQPVAFLLKELKGKFPDVPGFSWVTPCISAKDIVYIGLRDVDPGEHYIIKTLGIKYFSMTEVDKLGIGKVMEETFSYLLGRKKRPIHLSFDVDGLDPVFTPATGTPVVGGLSYREGLYITEEIYKTGLLSGLDIMEVNPTLGKTPEEVTRTVNTAVALTLSCFGTKREGNHKPETDYLKPPK

binding [3]: binds
binding [4]: binds
binding [5]: binds
binding [6]: binds
binding [7]: binds
binding [8]: binds
B2: ARG1 in HEK293 cell lysate (enzyme, UniProt P05089 1-322)
chain: MSAKSRTIGIIGAPFSKGQPRGGVEEGPTVLRKAGLLEKLKEQECDVKDYGDLPFADIPNDSPFQIVKNPRSVGKASEQLAGKVAEVKKNGRISLVLGGDHSLAIGSISGHARVHPDLGVIWVDAHTDINTPLTTTSGNLHGQPVSFLLKELKGKIPDVPGFSWVTPCISAKDIVYIGLRDVDPGEHYILKTLGIKYFSMTEVDRLGIGKVMEETLSYLLGRKKRPIHLSFDVDGLDPSFTPATGTPVVGGLTYREGLYITEEIYKTGLLSGLDIMEVNPSLGKTPEEVTRTVNTAVAITLACFGLAREGNHKPIDYLNPPK

binding [9]: binds
binding [10]: binds weakly
B3: purified arginase 1 (ARG1; aa 1-322) (enzyme, UniProt P05089 1-322)
chain: B2 chain
